Source: the supplement of paper PMC10849652
The other results are listed elsewhere or left out.

Sequences of proteins named here, by UniProt entry; tags and fusion partners are left off. A change or cut given only in a name is not applied to a line headed by its entry.
UniProt Q96GD4, whole entry, looked up: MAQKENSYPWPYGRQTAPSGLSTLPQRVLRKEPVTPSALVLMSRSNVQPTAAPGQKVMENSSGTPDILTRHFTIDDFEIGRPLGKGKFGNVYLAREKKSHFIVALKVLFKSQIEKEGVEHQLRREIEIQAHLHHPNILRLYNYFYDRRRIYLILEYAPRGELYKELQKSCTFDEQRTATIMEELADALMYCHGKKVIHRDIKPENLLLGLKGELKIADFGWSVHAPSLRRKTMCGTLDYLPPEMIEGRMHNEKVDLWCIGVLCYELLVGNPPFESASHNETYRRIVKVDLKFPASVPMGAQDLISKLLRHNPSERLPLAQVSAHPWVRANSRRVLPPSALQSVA
UniProt Q67FW5: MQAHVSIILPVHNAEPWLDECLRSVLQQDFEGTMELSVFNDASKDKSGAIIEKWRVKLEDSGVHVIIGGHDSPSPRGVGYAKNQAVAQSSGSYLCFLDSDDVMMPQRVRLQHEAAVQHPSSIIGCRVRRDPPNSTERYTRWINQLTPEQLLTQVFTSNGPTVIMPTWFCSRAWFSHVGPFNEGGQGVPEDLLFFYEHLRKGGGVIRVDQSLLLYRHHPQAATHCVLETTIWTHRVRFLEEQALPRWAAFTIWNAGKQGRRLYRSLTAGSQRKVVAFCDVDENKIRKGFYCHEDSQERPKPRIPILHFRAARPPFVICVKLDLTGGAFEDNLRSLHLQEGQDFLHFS
UniProt P35670: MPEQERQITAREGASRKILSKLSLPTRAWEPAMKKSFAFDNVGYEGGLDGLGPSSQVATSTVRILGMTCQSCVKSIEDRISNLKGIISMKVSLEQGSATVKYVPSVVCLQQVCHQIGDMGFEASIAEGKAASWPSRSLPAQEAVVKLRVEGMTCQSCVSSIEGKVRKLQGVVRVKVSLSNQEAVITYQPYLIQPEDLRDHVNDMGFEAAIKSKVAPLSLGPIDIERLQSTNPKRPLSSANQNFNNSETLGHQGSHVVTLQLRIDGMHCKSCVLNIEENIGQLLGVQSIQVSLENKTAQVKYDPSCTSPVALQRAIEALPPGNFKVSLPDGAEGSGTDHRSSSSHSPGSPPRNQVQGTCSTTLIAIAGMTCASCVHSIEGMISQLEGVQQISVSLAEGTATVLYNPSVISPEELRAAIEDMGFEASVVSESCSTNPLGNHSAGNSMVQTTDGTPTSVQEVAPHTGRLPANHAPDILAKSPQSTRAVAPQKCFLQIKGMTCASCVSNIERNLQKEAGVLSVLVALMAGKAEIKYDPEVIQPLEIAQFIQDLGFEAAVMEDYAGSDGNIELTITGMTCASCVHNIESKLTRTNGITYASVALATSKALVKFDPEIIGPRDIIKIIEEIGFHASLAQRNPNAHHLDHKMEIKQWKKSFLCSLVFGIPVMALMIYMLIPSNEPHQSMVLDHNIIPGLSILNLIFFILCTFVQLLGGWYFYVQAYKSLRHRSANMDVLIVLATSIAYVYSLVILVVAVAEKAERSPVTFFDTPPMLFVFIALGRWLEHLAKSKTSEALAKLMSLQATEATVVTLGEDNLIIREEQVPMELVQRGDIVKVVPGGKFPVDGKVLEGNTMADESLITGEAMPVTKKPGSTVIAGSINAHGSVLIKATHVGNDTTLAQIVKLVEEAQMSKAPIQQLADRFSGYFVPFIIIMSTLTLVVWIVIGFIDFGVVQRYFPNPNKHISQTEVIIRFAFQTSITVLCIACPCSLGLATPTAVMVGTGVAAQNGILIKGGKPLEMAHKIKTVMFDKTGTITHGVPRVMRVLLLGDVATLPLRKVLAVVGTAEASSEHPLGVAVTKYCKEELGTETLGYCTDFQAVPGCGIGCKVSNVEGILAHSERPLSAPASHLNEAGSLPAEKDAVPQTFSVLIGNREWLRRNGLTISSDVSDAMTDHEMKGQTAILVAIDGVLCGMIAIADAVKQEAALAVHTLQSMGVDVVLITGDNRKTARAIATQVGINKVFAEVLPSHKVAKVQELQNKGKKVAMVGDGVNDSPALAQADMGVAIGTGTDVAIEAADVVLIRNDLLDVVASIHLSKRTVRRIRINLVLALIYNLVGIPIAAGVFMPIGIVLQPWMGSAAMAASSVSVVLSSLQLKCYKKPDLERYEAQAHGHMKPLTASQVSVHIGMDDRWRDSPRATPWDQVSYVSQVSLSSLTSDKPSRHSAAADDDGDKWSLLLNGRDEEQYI
UniProt P0C7T5: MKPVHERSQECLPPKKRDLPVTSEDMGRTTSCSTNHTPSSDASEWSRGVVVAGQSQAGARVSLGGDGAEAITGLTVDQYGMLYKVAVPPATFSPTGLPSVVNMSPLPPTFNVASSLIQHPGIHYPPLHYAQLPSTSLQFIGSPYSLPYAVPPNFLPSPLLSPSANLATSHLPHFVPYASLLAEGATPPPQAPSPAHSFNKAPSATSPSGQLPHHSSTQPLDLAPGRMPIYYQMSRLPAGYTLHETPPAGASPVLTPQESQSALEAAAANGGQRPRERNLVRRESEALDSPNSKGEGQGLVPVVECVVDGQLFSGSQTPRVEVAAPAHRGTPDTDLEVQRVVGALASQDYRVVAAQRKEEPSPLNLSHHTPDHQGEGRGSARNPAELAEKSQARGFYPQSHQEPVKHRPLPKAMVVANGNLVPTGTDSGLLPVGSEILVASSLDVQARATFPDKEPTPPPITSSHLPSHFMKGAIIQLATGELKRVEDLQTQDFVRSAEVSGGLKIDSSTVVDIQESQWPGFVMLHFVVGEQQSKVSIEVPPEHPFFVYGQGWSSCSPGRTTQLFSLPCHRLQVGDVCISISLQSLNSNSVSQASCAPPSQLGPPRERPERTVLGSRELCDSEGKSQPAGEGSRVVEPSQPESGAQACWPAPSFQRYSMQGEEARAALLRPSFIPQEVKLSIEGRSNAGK
UniProt Q93050, whole entry, looked up: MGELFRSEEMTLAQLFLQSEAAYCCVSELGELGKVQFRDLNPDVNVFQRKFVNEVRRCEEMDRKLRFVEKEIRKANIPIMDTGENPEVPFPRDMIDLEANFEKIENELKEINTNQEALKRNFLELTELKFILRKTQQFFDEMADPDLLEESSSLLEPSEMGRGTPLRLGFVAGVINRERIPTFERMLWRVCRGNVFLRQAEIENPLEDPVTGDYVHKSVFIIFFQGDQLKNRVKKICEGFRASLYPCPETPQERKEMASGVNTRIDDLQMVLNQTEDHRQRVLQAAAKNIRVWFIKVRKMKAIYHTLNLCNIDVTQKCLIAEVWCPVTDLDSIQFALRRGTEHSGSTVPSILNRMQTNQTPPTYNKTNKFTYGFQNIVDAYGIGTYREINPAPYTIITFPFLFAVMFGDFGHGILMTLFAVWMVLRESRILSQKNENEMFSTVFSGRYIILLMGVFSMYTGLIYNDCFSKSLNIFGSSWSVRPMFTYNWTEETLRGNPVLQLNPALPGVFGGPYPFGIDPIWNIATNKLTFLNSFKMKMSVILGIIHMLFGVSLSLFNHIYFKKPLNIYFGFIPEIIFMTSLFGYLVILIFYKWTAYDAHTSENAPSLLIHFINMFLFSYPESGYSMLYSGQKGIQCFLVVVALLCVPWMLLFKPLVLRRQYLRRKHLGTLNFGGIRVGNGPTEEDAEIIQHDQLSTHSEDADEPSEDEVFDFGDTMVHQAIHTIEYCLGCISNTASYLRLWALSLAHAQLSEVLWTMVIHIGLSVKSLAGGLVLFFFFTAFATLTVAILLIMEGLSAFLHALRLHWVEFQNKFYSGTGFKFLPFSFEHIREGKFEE
UniProt H3BUF6: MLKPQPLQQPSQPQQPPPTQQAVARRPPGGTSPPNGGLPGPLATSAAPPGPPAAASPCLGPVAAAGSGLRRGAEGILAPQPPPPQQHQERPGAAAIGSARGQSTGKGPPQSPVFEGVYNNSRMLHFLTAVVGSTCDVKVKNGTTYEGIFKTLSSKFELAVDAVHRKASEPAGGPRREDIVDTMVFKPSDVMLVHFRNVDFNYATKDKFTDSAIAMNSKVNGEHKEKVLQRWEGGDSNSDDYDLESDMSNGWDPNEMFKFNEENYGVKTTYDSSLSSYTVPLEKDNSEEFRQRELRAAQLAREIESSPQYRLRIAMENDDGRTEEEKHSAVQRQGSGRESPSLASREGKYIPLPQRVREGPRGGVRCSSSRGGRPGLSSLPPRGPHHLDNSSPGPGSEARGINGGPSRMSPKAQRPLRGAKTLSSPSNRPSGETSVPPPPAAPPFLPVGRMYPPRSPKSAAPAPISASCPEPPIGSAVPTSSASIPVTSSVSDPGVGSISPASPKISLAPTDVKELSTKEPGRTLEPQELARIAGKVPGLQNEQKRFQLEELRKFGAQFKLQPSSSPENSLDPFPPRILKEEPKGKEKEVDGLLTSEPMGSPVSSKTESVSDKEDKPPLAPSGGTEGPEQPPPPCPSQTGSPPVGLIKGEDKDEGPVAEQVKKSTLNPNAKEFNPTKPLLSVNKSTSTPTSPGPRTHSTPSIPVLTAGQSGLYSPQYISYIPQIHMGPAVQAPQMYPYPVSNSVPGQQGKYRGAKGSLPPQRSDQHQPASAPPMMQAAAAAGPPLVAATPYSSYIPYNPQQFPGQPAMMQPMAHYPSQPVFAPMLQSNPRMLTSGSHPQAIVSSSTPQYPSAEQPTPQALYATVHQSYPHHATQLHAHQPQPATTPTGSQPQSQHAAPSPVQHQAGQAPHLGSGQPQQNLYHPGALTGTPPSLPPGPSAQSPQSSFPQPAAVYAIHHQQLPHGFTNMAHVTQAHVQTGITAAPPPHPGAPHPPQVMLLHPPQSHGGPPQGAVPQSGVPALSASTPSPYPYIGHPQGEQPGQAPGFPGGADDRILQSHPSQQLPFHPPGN
UniProt Q96L58: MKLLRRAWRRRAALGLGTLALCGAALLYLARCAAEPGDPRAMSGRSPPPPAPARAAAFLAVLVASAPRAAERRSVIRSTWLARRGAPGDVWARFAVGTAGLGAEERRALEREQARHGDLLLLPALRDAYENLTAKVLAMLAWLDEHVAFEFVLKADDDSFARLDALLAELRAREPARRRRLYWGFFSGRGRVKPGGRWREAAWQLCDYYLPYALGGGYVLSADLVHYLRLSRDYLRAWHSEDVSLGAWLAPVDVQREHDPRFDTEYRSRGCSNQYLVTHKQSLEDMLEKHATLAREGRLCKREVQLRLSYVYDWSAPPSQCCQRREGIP
UniProt P14415, whole entry, looked up: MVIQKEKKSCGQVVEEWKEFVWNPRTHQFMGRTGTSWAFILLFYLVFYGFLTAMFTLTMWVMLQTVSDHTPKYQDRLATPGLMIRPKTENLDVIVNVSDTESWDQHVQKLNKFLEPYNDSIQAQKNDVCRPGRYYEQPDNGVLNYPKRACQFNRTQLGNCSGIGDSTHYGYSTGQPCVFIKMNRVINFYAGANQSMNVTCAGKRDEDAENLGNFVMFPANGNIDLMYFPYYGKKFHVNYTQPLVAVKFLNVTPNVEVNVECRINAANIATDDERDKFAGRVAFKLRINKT
UniProt Q6UW56: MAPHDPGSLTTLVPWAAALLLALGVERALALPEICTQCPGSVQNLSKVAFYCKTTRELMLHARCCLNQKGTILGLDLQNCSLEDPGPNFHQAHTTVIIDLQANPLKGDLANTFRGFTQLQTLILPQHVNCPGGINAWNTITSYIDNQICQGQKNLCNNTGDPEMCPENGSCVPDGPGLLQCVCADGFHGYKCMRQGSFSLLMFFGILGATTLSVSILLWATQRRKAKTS
UniProt Q9UN42: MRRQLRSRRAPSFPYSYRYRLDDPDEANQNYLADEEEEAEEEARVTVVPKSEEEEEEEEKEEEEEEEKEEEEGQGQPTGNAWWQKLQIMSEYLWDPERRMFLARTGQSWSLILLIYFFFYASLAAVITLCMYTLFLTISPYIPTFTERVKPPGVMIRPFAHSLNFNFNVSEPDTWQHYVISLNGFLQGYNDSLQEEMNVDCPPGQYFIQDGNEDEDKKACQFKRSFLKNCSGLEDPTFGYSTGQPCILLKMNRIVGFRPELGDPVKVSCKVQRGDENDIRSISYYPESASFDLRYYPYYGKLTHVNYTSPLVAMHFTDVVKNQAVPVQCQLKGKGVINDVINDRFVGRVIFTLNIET
UniProt B2RBV5: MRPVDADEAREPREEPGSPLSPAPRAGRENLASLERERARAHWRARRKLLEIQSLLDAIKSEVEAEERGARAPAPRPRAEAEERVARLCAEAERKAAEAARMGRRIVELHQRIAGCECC
UniProt Q6ZNE5, whole entry, looked up: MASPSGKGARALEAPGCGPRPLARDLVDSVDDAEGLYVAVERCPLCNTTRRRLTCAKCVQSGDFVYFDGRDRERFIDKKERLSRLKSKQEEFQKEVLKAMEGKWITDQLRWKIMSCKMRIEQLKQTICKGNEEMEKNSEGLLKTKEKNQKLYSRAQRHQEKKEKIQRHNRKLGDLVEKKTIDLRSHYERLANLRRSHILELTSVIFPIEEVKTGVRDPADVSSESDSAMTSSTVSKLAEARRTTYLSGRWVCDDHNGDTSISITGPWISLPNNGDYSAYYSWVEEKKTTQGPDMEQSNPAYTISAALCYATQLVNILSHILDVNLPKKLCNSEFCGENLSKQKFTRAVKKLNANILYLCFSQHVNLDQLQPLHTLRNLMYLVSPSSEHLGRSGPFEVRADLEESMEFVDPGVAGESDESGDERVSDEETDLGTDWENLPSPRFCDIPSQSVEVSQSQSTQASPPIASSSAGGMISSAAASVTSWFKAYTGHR

Compound: CN1CC[C@H](c2c(O)cc(O)c3c(=O)cc(-c4ccccc4Cl)oc23)[C@H](O)C1 [alvocidib]
Test: log2 fold change, soluble protein after heating vs DMSO (PISA); higher = thermal stabilisation; K562 lysate, 10 uM; active = over 0.2 and 3.5 SD of the protein, either way, in both replicates (recomputed)
Outline: (§1)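 K562 pellets were dounce-homogenised in PBS pH 7.4 containing 1 mM MgCl2, and the crude extract, at 1 mg/mL protein, was exposed to 10 μM compound for 30 min. Aliquots were heated for 3 min across 48°C-58°C, pooled, brought to 0.5% NP-40 at 4°C and spun at 21,000xg for 90 min, with the supernatant taken as soluble protein. TMTpro 16plex LC-MS/MS with equalised channel sums quantified that protein. Values are log-two fold changes in thermal stability relative to solvent controls, taken from duplicates.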

For AURKB isoform 5 (UniProt Q96GD4), which log2 fold change is on record?
The log2 fold change was inactive: -0.234.

With ASNSD1 (UniProt Q9NWL6) as the target, how does the log2 fold change read?
Its log2 fold change is inactive: 0.

B3GNTL1 (UniProt Q67FW5) was tested. Which log2 fold change did it give?
The log2 fold change was inactive: -0.23.

Which log2 fold change does the source give for ATP5F1A (UniProt K7ENJ4) here?
Its log2 fold change is inactive: 0.067.

With ATP7B (UniProt P35670) as the target, how does the log2 fold change read?
Its log2 fold change is inactive: -0.052.

How did the log2 fold change turn out when ATXN1L (UniProt P0C7T5) was run?
The log2 fold change was inactive: 0.026.

Which log2 fold change does the source give for ATE1 (UniProt O95260) here?
The log2 fold change was inactive: -0.024.

How did the log2 fold change turn out when ATP6V0A1 (UniProt Q93050) was run?
The log2 fold change was inactive: -0.023.

For ATXN2L (UniProt H3BUF6), which log2 fold change is on record?
Its log2 fold change is inactive: -0.063.

Compound: CN1CCc2c(c3ccccc3n2Cc2ccc(C(=O)NO)cc2)C1 [Tubastatin A]
Test: as above
Outline: as §1

For B3GNTL1 (UniProt Q67FW5), which log2 fold change is on record?
The log2 fold change was inactive: 0.007.

With ATG2A (UniProt Q2TAZ0) as the target, how does the log2 fold change read?
Its log2 fold change is inactive: -0.074.

Which log2 fold change does the source give for ATF6 (UniProt P18850) here?
Its log2 fold change is inactive: 0.055.

ATP5F1A (UniProt K7ENJ4) was tested. Which log2 fold change did it give?
The log2 fold change was inactive: -0.051.

Which log2 fold change does the source give for ATP5F1B (UniProt H0YI37) here?
The log2 fold change was inactive: 0.398.

Which log2 fold change does the source give for ATXN1L (UniProt P0C7T5) here?
Its log2 fold change is inactive: -0.019.

For ATAD2B (UniProt Q9ULI0), which log2 fold change is on record?
The log2 fold change was inactive: -0.126.

How did the log2 fold change turn out when B3GALT6 (UniProt Q96L58) was run?
Its log2 fold change is inactive: 0.051.

How did the log2 fold change turn out when B3GALNT2 (UniProt Q8NCR0) was run?
The log2 fold change was inactive: 0.052.

ASXL3 (UniProt Q9C0F0) was tested. Which log2 fold change did it give?
Its log2 fold change is inactive: -0.151.

How did the log2 fold change turn out when ATPSCKMT (UniProt Q6P4H8) was run?
The log2 fold change was active: -0.368.

How did the log2 fold change turn out when ATP1B2 (UniProt P14415) was run?
The log2 fold change was inactive: 0.068.

ATP6V0A1 (UniProt Q93050) was tested. Which log2 fold change did it give?
Its log2 fold change is inactive: -0.041.

With ATRAID isoform 3 (UniProt Q6UW56) as the target, how does the log2 fold change read?
The log2 fold change was inactive: -0.022.

ATP1B4 (UniProt Q9UN42) was tested. Which log2 fold change did it give?
The log2 fold change was inactive: -0.051.

How did the log2 fold change turn out when ATG4D (UniProt Q86TL0) was run?
The log2 fold change was inactive: -0.09.

Which log2 fold change does the source give for ATP5F1C isoform 2 (UniProt P36542) here?
The log2 fold change was inactive: 0.108.

Compound: CNC(=O)C1=CC=CC=C1NC2=NC(=NC=C2Cl)NC3=C(C=C(C=C3)N4CCOCC4)OC
Test: as above
Outline: as §1

For NA (UniProt B2RBV5), which log2 fold change is on record?
The log2 fold change was inactive: -0.31.

For ATAD5 (UniProt Q96QE3), which log2 fold change is on record?
The log2 fold change was inactive: 0.016.

How did the log2 fold change turn out when AURKB isoform 5 (UniProt Q96GD4) was run?
The log2 fold change was inactive: 0.449.

How did the log2 fold change turn out when ASNSD1 (UniProt Q9NWL6) was run?
Its log2 fold change is inactive: 0.13.

ATG2A (UniProt Q2TAZ0) was tested. Which log2 fold change did it give?
Its log2 fold change is inactive: -0.066.

ATF6 (UniProt P18850) was tested. Which log2 fold change did it give?
The log2 fold change was inactive: 0.133.

With ATP5F1A (UniProt K7ENJ4) as the target, how does the log2 fold change read?
Its log2 fold change is inactive: 0.135.

How did the log2 fold change turn out when ATP7B (UniProt P35670) was run?
Its log2 fold change is inactive: -0.012.

How did the log2 fold change turn out when ATG14 (UniProt Q6ZNE5) was run?
Its log2 fold change is inactive: -0.122.

With ATP5F1B (UniProt H0YI37) as the target, how does the log2 fold change read?
Its log2 fold change is inactive: 0.002.

Which log2 fold change does the source give for B3GALT6 (UniProt Q96L58) here?
Its log2 fold change is inactive: -0.025.

With ATP5F1B (UniProt F8W0P7) as the target, how does the log2 fold change read?
The log2 fold change was inactive: 0.043.

Which log2 fold change does the source give for ASXL3 (UniProt Q9C0F0) here?
Its log2 fold change is inactive: -0.143.

For ATP1B2 (UniProt P14415), which log2 fold change is on record?
Its log2 fold change is inactive: 0.045.

Which log2 fold change does the source give for ATP6V0A1 (UniProt Q93050) here?
Its log2 fold change is inactive: -0.087.

ATRAID isoform 3 (UniProt Q6UW56) was tested. Which log2 fold change did it give?
The log2 fold change was inactive: -0.021.

With ATXN2L (UniProt H3BUF6) as the target, how does the log2 fold change read?
The log2 fold change was inactive: 0.028.

With ASPRV1 (UniProt Q53RT3) as the target, how does the log2 fold change read?
Its log2 fold change is inactive: -0.254.

For ASB9 (UniProt Q96DX5), which log2 fold change is on record?
Its log2 fold change is inactive: 0.095.

Compound: CNC(=O)c1ccc(Nc2ncc(C(F)(F)F)c(NCc3nccnc3N(C)S(C)(=O)=O)n2)cc1 [defactinib]
Test: as above
Outline: as §1

Which log2 fold change does the source give for ATXN7L2 (UniProt Q5T6C5) here?
The log2 fold change was inactive: 0.101.

With AURKB isoform 5 (UniProt Q96GD4) as the target, how does the log2 fold change read?
The log2 fold change was inactive: 0.107.

For ASB3 isoform 3 (UniProt Q9Y575), which log2 fold change is on record?
Its log2 fold change is inactive: 0.111.

How did the log2 fold change turn out when ATP7B (UniProt P35670) was run?
Its log2 fold change is inactive: -0.028.

With ATG14 (UniProt Q6ZNE5) as the target, how does the log2 fold change read?
Its log2 fold change is inactive: 0.119.

How did the log2 fold change turn out when ATXN1L (UniProt P0C7T5) was run?
Its log2 fold change is inactive: -0.065.

How did the log2 fold change turn out when ATP5F1B (UniProt F8W0P7) was run?
Its log2 fold change is inactive: 0.075.

With ATP1B2 (UniProt P14415) as the target, how does the log2 fold change read?
The log2 fold change was inactive: 0.04.

With ATRAID isoform 3 (UniProt Q6UW56) as the target, how does the log2 fold change read?
Its log2 fold change is inactive: -0.018.

ATXN2L (UniProt H3BUF6) was tested. Which log2 fold change did it give?
Its log2 fold change is inactive: 0.106.

Compound: CNc1nc(-c2ccc3c(N)n[nH]c3c2)cc(N2C[C@@H](C(=O)NC3CCCCC3)CC[C@H]2C)n1
Test: as above
Outline: as §1

Which log2 fold change does the source give for AURKB isoform 5 (UniProt Q96GD4) here?
The log2 fold change was inactive: 0.216.

With ATP7B (UniProt P35670) as the target, how does the log2 fold change read?
The log2 fold change was inactive: 0.034.

With ATG14 (UniProt Q6ZNE5) as the target, how does the log2 fold change read?
The log2 fold change was inactive: -0.061.

ATP5F1B (UniProt H0YI37) was tested. Which log2 fold change did it give?
Its log2 fold change is inactive: 1.34.

For B3GALT6 (UniProt Q96L58), which log2 fold change is on record?
Its log2 fold change is inactive: 0.059.

For ATP5F1B (UniProt F8W0P7), which log2 fold change is on record?
The log2 fold change was inactive: 0.086.

B3GALNT2 (UniProt Q8NCR0) was tested. Which log2 fold change did it give?
Its log2 fold change is inactive: -0.087.

How did the log2 fold change turn out when ATPSCKMT (UniProt Q6P4H8) was run?
The log2 fold change was inactive: -0.027.

Which log2 fold change does the source give for ATP1B2 (UniProt P14415) here?
Its log2 fold change is inactive: -0.041.

Which log2 fold change does the source give for ATXN2 (UniProt F8WB06) here?
Its log2 fold change is inactive: -0.09.

ATP6V0A1 (UniProt Q93050) was tested. Which log2 fold change did it give?
The log2 fold change was inactive: -0.039.

ATRAID isoform 3 (UniProt Q6UW56) was tested. Which log2 fold change did it give?
Its log2 fold change is inactive: -0.019.

ATXN2L (UniProt H3BUF6) was tested. Which log2 fold change did it give?
The log2 fold change was inactive: -0.103.

ATP1B4 (UniProt Q9UN42) was tested. Which log2 fold change did it give?
The log2 fold change was inactive: -0.006.

ASB16 (UniProt Q96NS5) was tested. Which log2 fold change did it give?
Its log2 fold change is inactive: 0.196.

ATG4D (UniProt Q86TL0) was tested. Which log2 fold change did it give?
Its log2 fold change is inactive: -0.008.
